Laboratory results taken from the supplement of paper PMC7666118.
The other results are listed elsewhere or left out.

By UniProt entry, the sequences of proteins in these tests, tags left out. Where a name states a change or a piece, a line headed by the entry shows the natural chain unless it says otherwise.
UniProt Q68D10: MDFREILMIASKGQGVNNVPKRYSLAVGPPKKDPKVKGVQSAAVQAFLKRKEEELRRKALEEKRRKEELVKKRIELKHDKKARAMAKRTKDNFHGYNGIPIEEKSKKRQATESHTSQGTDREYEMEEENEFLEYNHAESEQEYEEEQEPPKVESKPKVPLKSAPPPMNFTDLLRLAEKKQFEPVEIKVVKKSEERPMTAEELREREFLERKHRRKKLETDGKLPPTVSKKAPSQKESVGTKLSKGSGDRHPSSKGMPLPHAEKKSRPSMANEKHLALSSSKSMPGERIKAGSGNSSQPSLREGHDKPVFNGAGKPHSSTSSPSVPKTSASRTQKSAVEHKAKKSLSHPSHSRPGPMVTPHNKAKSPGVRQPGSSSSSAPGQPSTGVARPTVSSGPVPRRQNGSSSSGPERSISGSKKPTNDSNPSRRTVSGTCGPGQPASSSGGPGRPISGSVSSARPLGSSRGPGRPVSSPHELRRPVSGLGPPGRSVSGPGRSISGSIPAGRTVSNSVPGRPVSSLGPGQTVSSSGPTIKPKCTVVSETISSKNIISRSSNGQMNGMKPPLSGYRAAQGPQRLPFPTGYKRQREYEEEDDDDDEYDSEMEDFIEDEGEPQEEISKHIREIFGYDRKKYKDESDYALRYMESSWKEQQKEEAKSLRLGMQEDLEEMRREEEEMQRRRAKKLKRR
UniProt P43308: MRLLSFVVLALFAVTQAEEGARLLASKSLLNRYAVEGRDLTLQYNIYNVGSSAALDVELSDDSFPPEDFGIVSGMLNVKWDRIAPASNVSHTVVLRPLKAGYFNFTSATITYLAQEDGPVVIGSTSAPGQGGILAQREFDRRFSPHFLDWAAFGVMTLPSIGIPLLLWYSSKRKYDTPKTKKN
UniProt O95455: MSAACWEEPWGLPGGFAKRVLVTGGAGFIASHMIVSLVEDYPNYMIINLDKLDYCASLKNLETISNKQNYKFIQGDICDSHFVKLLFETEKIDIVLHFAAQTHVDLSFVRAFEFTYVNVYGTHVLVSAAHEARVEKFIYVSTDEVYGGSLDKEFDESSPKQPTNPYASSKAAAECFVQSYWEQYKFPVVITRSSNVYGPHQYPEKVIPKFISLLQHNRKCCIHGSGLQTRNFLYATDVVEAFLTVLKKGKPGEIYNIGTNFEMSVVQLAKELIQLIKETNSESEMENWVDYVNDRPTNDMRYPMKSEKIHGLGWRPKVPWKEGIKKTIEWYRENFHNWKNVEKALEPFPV
UniProt P04179: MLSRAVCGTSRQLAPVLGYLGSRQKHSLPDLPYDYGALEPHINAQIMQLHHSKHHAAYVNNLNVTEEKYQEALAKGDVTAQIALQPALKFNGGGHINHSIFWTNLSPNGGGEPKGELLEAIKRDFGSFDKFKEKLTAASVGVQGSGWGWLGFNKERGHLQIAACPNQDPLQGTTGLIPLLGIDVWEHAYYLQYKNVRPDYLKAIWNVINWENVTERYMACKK
UniProt Q8WUA7: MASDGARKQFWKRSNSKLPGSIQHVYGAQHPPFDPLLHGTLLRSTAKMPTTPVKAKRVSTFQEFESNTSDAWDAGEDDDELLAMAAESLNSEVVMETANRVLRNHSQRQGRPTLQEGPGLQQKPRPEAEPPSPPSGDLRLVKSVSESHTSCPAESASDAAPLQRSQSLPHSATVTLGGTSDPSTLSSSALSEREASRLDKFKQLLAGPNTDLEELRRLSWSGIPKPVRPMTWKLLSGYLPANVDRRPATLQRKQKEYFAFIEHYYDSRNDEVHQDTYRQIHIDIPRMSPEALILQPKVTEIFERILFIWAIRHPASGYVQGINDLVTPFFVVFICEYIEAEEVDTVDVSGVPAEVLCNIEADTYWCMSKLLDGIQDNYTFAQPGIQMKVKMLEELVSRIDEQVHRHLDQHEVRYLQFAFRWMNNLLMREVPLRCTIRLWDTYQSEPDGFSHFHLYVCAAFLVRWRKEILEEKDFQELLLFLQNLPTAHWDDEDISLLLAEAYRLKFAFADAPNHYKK
UniProt Q92734, whole entry: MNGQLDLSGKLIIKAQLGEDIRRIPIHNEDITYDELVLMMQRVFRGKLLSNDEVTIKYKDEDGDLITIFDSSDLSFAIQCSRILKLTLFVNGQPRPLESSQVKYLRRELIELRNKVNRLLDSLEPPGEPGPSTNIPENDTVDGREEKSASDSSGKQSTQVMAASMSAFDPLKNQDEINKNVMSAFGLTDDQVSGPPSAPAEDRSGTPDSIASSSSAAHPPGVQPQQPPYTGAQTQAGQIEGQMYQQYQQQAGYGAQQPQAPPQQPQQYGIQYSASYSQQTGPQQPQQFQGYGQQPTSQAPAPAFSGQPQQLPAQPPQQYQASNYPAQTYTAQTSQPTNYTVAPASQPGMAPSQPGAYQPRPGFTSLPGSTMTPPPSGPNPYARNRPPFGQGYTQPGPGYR
UniProt P26639: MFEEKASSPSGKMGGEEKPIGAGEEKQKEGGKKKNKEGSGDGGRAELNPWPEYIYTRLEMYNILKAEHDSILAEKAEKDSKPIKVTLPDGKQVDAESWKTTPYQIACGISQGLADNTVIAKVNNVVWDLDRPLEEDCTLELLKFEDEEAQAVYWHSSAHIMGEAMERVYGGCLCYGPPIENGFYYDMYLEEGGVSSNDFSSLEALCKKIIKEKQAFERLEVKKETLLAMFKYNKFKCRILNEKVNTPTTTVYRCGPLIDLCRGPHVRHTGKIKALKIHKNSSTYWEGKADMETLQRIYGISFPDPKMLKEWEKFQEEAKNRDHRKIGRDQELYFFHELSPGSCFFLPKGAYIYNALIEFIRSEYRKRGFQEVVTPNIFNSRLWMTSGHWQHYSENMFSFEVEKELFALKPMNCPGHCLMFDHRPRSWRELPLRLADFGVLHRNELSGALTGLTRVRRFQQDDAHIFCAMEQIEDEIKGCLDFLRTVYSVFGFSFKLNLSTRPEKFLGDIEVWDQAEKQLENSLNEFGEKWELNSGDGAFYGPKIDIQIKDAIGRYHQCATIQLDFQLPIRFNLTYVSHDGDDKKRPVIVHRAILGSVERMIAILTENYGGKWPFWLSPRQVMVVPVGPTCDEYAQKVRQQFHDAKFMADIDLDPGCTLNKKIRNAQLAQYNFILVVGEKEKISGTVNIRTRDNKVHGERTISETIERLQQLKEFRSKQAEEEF
UniProt O75683: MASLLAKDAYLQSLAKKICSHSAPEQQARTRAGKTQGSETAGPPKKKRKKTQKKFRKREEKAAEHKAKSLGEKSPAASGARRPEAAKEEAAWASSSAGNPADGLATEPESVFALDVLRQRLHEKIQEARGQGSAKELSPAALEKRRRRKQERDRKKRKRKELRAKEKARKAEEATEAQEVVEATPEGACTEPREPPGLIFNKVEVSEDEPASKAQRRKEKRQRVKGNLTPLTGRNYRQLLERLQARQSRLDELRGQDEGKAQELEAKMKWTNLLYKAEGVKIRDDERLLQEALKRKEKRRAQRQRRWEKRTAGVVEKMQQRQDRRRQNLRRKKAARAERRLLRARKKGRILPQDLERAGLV
UniProt Q9Y6J9: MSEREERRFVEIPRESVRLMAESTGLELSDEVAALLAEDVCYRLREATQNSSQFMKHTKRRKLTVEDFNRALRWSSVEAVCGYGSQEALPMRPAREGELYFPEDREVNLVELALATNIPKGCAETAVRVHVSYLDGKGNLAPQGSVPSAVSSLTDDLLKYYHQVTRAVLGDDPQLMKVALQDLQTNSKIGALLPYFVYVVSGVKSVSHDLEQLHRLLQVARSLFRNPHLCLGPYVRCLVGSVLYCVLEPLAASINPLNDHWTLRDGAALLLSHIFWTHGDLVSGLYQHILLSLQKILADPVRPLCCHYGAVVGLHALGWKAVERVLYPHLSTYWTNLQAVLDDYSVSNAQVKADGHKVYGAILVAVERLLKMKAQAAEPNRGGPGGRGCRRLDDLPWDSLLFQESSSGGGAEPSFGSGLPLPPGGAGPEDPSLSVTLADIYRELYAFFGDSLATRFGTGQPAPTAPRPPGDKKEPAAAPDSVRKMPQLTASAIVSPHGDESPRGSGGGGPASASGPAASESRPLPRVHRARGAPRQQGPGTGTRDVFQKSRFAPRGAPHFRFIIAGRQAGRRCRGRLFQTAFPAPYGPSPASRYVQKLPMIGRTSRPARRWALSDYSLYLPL
UniProt Q14849, whole entry: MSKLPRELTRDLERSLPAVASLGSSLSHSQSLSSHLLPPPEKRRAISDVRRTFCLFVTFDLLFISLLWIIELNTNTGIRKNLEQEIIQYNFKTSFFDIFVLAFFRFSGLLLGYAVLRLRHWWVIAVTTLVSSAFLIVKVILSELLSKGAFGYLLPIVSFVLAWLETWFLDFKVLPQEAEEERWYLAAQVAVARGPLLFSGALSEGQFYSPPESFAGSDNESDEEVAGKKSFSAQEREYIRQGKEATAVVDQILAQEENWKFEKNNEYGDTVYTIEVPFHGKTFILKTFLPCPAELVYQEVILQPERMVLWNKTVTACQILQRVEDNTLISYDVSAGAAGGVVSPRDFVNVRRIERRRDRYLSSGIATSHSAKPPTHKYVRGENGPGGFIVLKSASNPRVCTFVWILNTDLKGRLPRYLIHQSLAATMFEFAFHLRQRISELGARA
UniProt Q5T5C0: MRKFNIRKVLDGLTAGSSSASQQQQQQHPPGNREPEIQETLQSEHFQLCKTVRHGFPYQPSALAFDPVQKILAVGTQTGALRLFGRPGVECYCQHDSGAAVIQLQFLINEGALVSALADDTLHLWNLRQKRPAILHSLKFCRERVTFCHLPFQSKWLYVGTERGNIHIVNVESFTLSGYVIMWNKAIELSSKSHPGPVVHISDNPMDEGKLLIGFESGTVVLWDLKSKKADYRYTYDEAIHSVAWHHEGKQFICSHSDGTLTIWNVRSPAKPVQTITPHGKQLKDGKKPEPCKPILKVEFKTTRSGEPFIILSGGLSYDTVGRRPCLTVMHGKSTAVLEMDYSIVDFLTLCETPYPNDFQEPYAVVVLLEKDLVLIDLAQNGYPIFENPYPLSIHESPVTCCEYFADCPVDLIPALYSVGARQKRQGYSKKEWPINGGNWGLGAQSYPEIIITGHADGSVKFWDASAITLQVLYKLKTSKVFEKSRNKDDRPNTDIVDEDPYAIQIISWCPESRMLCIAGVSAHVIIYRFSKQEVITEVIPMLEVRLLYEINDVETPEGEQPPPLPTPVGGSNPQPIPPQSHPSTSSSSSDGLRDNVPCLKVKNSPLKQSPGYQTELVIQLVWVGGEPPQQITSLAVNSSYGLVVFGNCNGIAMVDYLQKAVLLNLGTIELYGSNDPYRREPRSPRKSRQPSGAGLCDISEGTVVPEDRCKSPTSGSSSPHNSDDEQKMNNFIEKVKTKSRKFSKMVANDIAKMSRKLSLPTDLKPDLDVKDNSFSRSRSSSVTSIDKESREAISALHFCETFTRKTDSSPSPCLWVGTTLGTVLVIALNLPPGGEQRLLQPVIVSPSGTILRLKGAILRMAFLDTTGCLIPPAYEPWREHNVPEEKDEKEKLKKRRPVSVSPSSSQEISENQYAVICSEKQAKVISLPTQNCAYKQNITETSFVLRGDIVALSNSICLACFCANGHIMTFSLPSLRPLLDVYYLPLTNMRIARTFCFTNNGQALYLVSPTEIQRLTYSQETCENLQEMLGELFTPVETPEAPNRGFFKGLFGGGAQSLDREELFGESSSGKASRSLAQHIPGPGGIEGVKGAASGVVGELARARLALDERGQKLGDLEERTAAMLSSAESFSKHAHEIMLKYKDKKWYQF
UniProt Q9H7E2: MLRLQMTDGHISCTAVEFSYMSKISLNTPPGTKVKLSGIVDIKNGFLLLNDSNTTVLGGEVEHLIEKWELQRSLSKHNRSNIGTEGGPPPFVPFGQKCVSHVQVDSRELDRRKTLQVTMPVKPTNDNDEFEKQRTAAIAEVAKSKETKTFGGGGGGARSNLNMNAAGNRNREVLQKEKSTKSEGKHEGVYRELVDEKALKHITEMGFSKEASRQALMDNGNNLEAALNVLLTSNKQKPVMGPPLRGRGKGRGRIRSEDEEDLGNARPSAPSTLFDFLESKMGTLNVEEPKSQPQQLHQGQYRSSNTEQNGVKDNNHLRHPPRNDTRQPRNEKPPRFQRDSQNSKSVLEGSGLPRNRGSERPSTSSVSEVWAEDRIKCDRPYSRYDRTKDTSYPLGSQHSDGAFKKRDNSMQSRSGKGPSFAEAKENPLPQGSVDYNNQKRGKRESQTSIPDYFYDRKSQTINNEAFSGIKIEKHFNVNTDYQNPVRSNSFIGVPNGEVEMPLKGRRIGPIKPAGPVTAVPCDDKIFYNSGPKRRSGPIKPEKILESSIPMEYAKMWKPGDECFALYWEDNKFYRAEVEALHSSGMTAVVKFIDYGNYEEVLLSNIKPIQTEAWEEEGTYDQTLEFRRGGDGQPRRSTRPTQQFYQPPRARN
UniProt Q5T1C6: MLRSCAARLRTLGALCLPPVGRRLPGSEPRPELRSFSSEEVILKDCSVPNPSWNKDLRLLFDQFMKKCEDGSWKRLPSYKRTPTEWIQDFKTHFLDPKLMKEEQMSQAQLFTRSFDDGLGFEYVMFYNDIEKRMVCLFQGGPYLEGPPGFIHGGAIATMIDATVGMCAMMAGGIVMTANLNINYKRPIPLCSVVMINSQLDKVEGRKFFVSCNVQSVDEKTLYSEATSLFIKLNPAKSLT

Compound: COc1ccc(Cn2ccc3cc(C)c(C(=O)NO)cc32)cc1
Assay: dose-dependent thermal stabilisation call (2D-TPP, DLPTP, 10% FDR) (binary (1 = stabilised)); higher = stabilised by the compound
Conditions: system: HL-60 intact cells; concentration range 0.04-10 µM
Protocol: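 2D thermal proteome profiling in intact HL-60 cells treated with BRD-3811 (0, 0.04, 0.29, 2, 10 uM) for 90 min at 37 C, then heated 3 min at one of 12 temperatures (42-63.9 C). Soluble protein was quantified by TMT10 MS. The value is the DLPTP call of the paper: dose-dependent thermal stabilisation over all temperatures at 10% FDR (F-test of a dose-response against a flat model); one experiment, one call per tested protein.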

Row | Target | dose-dependent thermal stabilisation call
1 | SUB1 (UniProt P53999) | inactive: 0
2 | SPTY2D1 (UniProt Q68D10) | inactive: 0
3 | SSR2 (UniProt P43308) | inactive: 0
4 | TGDS (UniProt O95455) | inactive: 0
5 | TFB1M (UniProt Q8WVM0) | inactive: 0
6 | SOD2 (UniProt P04179) | inactive: 0
7 | TBC1D22A (UniProt Q8WUA7) | inactive: 0
8 | TFG (UniProt Q92734) | inactive: 0
9 | SPC25 (UniProt Q9HBM1) | inactive: 0
10 | TARS (UniProt P26639) | inactive: 0
11 | TANC2 (UniProt Q9HCD6) | inactive: 0
12 | STK38 (UniProt Q15208) | inactive: 0
13 | SURF6 (UniProt O75683) | inactive: 0
14 | SYNJ1 (UniProt O43426) | inactive: 0
15 | TAF6L (UniProt Q9Y6J9) | inactive: 0
16 | STARD3 (UniProt Q14849) | inactive: 0
17 | STXBP5 (UniProt Q5T5C0) | inactive: 0
18 | SOLH (UniProt O75808) | inactive: 0
19 | SRP09 | inactive: 0
20 | TDRD3 (UniProt Q9H7E2) | inactive: 0
21 | SQSTM1 (UniProt Q13501) | inactive: 0
22 | THEM4 (UniProt Q5T1C6) | active: 1
23 | TADA1L (UniProt Q96BN2) | inactive: 0

Exported field by field: entries from further up.
SURF6 (UniProt O75683)
  dose-dependent thermal stabilisation call: inactive: 0
SYNJ1 (UniProt O43426)
  dose-dependent thermal stabilisation call: inactive: 0
